In the odorant receptor screen of Mainland et al. (2015) one finds odorant receptor activation data, which are given here for 15 molecules.

Some test systems named below: OR6Q1 clone 1231; OR6T1 clone 1188; OR6V1 clone 1730; OR6X1 clone 1239; OR6Y1 V252I clone 1025; OR7A10 clone 1104; OR7A17 clone 1300; OR7A5 clone 1469; OR7C1 clone 1299.
Common to all, as to assay: odorant receptor activation (CRE luciferase / Renilla) (fold of no-odor wells); higher = more activation
Holding throughout (details): 100 µM

For assay [1], the system named is OR6S1 T42I/V156I/R237H clone 1271.

Where “and” joins values, the source holds several entries; their conditions need not be identical. Equal values may be shown once. Some of the results follow. Each value is one well over the wells without odorant, computed here; the data are noisy.

On to `CC1CCC(C(C)C)C(O)C1` (single isomer, unassigned; (-)) [(-)-menthol], for which the odorant receptor activation in the assay with OR6Q1 clone 1231 was 1.04; in assay [1], 0.543; in the assay with OR6T1 clone 1188 it was 1.3; in the assay with OR6V1 clone 1730, 1.07; in the assay on OR6X1 clone 1239 it was 1.04; with OR6Y1 V252I clone 1025, 3.13. Also, the odorant receptor activation came out at 6.21 in the assay with OR7A10 clone 1104, 0.677 with OR7A17 clone 1300, 4.18 in the assay on OR7A5 clone 1469 and 0.756 in the assay with OR7C1 clone 1299.
For `O=C1CCCCCCCCCCCC(=O)OCCO1` [ethylene brassylate], the odorant receptor activation in the assay with OR6Q1 clone 1231 came out at 1.87; in assay [1], 1.25; in the assay on OR6T1 clone 1188 it was 2.27; in the assay on OR6V1 clone 1730 it was 1.09; in the assay with OR6X1 clone 1239, 0.959; in the assay on OR6Y1 V252I clone 1025, 1.64. Further, the odorant receptor activation was 1.51 in the assay with OR7A10 clone 1104, 1.16 in the assay with OR7A17 clone 1300, 1.64 in the assay on OR7A5 clone 1469 and 1.56 in the assay on OR7C1 clone 1299.
Regarding `CC1=NC(C)SC1C` (stereo not given), the odorant receptor activation in assay [1] was 1.37; in the assay on OR6T1 clone 1188, 1.2; with OR6Y1 V252I clone 1025, 1.15; with OR7A10 clone 1104, 1.37; in the assay with OR7A17 clone 1300, 1.06; in the assay on OR7A5 clone 1469 it was 1.08 and 0.938. Also, the odorant receptor activation in the assay with OR7C1 clone 1299 is 1.83.
With `CCC1(O)C2(C)CCC(C2)C1(C)C` (stereo not given) [2-ethylfenchol], the odorant receptor activation came to 0.861 with OR6Q1 clone 1231; 0.958 in [1]; 1.01 with OR6T1 clone 1188; 0.959 in the assay on OR6V1 clone 1730; 0.629 with OR6X1 clone 1239; 3.97 with OR6Y1 V252I clone 1025. Further, the odorant receptor activation with OR7A10 clone 1104 stood at 7.9; in the assay on OR7A17 clone 1300 it was 1.06; in the assay with OR7A5 clone 1469 it was 1.29; with OR7C1 clone 1299, 1.07.
Turning to `CC(=O)OC1CC2CCC1(C)C2(C)C` (stereo not given) [isobornyl acetate], the odorant receptor activation with OR6Q1 clone 1231 was 0.941; in assay [1], 1.38 and 1.08; with OR6T1 clone 1188, 1.21; with OR6V1 clone 1730 it was 0.774; in the assay with OR6X1 clone 1239, 0.913; with OR6Y1 V252I clone 1025 it was 1.43. The odorant receptor activation in the assay on OR7A10 clone 1104 was 1.86; in the assay on OR7A17 clone 1300 it was 1.74 and 1.11; in the assay with OR7A5 clone 1469, 1.15 and 1.13; with OR7C1 clone 1299 it was 1.22 and 0.821.
With `C=C(C)C1CCC2=CC(=O)CC(C)C2(C)C1` (stereo not given) [amyl laurate], the odorant receptor activation in the assay on OR6V1 clone 1730 was determined as 2.18; in the assay with OR6X1 clone 1239, 0.914.
Take `CCCCCCCCCC=O` [decyl aldehyde]: the odorant receptor activation in the assay with OR6Q1 clone 1231 turned out to be 1.38; in assay [1], 1.16; in the assay with OR6T1 clone 1188, 1.5; in the assay with OR6V1 clone 1730, 0.96; in the assay on OR6X1 clone 1239 it was 0.801; in the assay on OR6Y1 V252I clone 1025, 1.59. Also, the odorant receptor activation is 1.12 in the assay on OR7A10 clone 1104, 1.15 with OR7A17 clone 1300, 1.11 with OR7A5 clone 1469 and 1.37 with OR7C1 clone 1299.
`CC(C)(C)c1ccc(CCC=O)cc1` [bourgeonal]: the odorant receptor activation in the assay with OR6Q1 clone 1231 was found to be 0.637; in assay [1], 0.841; with OR6T1 clone 1188 it was 0.801; in the assay with OR6Y1 V252I clone 1025, 0.933; in the assay on OR7A10 clone 1104, 0.941; in the assay on OR7A17 clone 1300 it was 0.54. Also, the odorant receptor activation with OR7A5 clone 1469 was determined as 0.912; in the assay on OR7C1 clone 1299, 0.72.
On to `CC1COCc2cc3c(cc21)C(C)(C)C(C)C3(C)C` (stereo not given) [galaxolide], for which the odorant receptor activation with OR6Q1 clone 1231 is 0.662; in the assay on OR6T1 clone 1188, 0.64; in the assay with OR6X1 clone 1239, 0.29 and 0.65; in the assay on OR6Y1 V252I clone 1025 it was 6.38; with OR7A10 clone 1104 it was 5.68; in the assay with OR7A17 clone 1300, 3.98 and 4.43. The odorant receptor activation with OR7C1 clone 1299 was 1.34 and 3.98.
On to `O=CCc1ccccc1` [phenyl acetaldehyde], for which the odorant receptor activation in the assay with OR6Q1 clone 1231 came to 1.28; in [1], 1.24; with OR6T1 clone 1188, 1.15; in the assay with OR6V1 clone 1730, 1.84; in the assay on OR6X1 clone 1239, 1.65; in the assay with OR6Y1 V252I clone 1025, 1.55. Besides, the odorant receptor activation is 1.62 with OR7A10 clone 1104, 1.1 in the assay with OR7A17 clone 1300, 1.27 in the assay on OR7A5 clone 1469 and 1.14 with OR7C1 clone 1299.
Take `CC1CCC(C(C)C)C(O)C1` (single isomer, unassigned; (+)) [(+)-menthol]: the odorant receptor activation was 1.08 in the assay on OR6Q1 clone 1231; 0.735 in assay [1]; 1.31 in the assay on OR6T1 clone 1188; 0.741 in the assay on OR6V1 clone 1730; 1 in the assay on OR6X1 clone 1239; 3.55 in the assay with OR6Y1 V252I clone 1025. The odorant receptor activation with OR7A10 clone 1104 is 7.69; with OR7A17 clone 1300, 1.12; in the assay with OR7A5 clone 1469 it was 1.25; with OR7C1 clone 1299 it was 0.872.
With `CC12C=CCC1C1CCC3CC(=O)CCC3(C)C1CC2` (stereo not given) [androstenone], the odorant receptor activation in the assay with OR6Q1 clone 1231 amounted to 8.32; in assay [1] it was 1.28; in the assay on OR6T1 clone 1188 it was 4.05; in the assay with OR6Y1 V252I clone 1025, 1.79; with OR7A10 clone 1104, 3.15; in the assay on OR7A17 clone 1300 it was 1.23. Besides, the odorant receptor activation in the assay with OR7A5 clone 1469 amounted to 1.23; in the assay with OR7C1 clone 1299, 1.13.
Take `CCCCCC(=O)O` [caproic acid]: the odorant receptor activation was 1.11 in the assay with OR6Q1 clone 1231; 0.938 in assay [1]; 0.943 in the assay on OR6T1 clone 1188; 0.94 in the assay on OR6V1 clone 1730; 0.673 in the assay on OR6X1 clone 1239; 0.895 in the assay with OR6Y1 V252I clone 1025. The odorant receptor activation in the assay with OR7A10 clone 1104 is 1.1; with OR7A17 clone 1300, 0.74; in the assay on OR7A5 clone 1469, 0.721; in the assay on OR7C1 clone 1299 it was 0.964.
Take `CCCCCCCCCCC=O` [undecanal]: the odorant receptor activation stood at 1.03 in the assay on OR6Q1 clone 1231; 1.01 in [1]; 0.9 in the assay with OR6T1 clone 1188; 0.895 with OR6V1 clone 1730; 1.14 in the assay on OR6X1 clone 1239; 0.958 with OR6Y1 V252I clone 1025. Further, the odorant receptor activation in the assay with OR7A10 clone 1104 is 1.39; with OR7A17 clone 1300 it was 0.862; with OR7A5 clone 1469 it was 1.01; with OR7C1 clone 1299 it was 1.02.
As for `CC12C=CCC1C1CCC3=CC(=O)CCC3(C)C1CC2` (stereo not given) [androstadienone], the odorant receptor activation is 0.945 with OR6Q1 clone 1231; 1.15 and 1.01 in [1]; 0.936 in the assay with OR6T1 clone 1188; 2.15 in the assay with OR6Y1 V252I clone 1025; 2.28 with OR7A10 clone 1104; 1.18 and 1.03 in the assay on OR7A17 clone 1300. In addition, the odorant receptor activation was 1.27 and 1.17 in the assay on OR7A5 clone 1469; 0.899 and 1.29 in the assay on OR7C1 clone 1299.
